From article PMC7033728
These are yes or no findings as the source states them, for the method shown. Binding seen in cells or lysates may run through a third protein. Some binding calls cover weakened binding; strength is not graded here.

Sequences of proteins named here, by UniProt entry; tags and fusion partners are left off. A change or cut given only in a name is not applied to a line headed by its entry.
UniProt Q08211: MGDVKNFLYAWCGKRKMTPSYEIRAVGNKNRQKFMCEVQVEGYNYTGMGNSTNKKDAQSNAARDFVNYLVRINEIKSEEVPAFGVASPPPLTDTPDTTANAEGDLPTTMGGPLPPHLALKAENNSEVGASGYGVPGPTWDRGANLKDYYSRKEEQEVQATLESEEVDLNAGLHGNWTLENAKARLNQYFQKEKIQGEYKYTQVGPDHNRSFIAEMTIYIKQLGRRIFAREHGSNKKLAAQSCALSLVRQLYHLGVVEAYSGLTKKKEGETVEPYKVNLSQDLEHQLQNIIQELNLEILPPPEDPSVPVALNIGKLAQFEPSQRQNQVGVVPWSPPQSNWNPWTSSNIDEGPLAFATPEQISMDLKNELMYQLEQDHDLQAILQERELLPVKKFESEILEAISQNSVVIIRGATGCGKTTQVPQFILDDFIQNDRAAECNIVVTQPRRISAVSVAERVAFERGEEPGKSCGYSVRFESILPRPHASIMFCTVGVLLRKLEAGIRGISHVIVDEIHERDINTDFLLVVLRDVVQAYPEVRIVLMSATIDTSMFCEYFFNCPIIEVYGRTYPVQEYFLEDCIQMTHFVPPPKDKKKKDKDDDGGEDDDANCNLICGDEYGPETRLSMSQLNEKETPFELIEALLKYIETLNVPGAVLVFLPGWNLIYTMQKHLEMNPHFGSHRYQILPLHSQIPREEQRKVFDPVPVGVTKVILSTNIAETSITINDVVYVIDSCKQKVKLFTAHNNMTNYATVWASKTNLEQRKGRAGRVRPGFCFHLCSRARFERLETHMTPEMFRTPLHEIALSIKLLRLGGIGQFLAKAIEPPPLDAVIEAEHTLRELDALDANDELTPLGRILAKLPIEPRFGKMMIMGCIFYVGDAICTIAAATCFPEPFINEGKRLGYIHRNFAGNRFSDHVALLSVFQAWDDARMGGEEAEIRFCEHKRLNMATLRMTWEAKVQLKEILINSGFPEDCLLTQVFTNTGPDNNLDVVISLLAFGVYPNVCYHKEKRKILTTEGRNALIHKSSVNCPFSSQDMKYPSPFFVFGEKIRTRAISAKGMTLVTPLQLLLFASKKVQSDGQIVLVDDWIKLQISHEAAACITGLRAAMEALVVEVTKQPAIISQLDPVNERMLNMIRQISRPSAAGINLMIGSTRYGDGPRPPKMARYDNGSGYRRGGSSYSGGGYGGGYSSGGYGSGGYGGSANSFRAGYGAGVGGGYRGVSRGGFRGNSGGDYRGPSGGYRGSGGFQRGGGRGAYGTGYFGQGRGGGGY
UniProt Q9UH17: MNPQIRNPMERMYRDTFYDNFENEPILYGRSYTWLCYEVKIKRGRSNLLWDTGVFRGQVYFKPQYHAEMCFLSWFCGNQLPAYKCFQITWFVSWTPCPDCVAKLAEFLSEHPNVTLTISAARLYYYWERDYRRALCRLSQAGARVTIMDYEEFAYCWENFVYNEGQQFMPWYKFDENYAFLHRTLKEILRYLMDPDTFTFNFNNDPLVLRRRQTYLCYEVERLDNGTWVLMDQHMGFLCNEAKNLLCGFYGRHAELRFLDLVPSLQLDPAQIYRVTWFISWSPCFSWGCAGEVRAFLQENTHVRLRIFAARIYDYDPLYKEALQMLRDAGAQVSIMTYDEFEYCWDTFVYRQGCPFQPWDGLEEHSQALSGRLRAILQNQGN

Key:
[1] = molecular target: Flag-tagged DExD/H-box helicase 9 (DHX9), wild type (human) (UniProt Q08211); experiment: co-IP; Huh7 cotransfected with HA-A3B and Flag-DHX9 in the absence or presence of the HBV replication plasmid (gtD); co-IP as Figure 2(B) (anti-Flag antibody)
[2] = molecular target: Flag-tagged DExD/H-box helicase 9 (DHX9), wild type (human) (UniProt Q08211); experiment: co-IP; reverse co-IP, HEK293T cotransfected with HA-A3B and Flag-DHX9; RIPA lysate; IP with anti-Flag antibody
[3] = molecular target: Flag-tagged DExD/H-box helicase 9 (DHX9), wild type (human) (UniProt Q08211); experiment: co-IP; HEK293T cotransfected with HA-A3B and Flag-DHX9 WT or truncation mutants; lysates used for co-IP; A3B pulled down by the DHX9 proteins; IP antibody not named

Measured: binding

HA-tagged APOBEC3B (A3B) (from UniProt Q9UH17 1-382)
binds: [1] | [2] | [3]
